From PMC6171917
Results are given in words; binding and its absence hold for the method and conditions named. Some results given as binding are weak or reduced against the parent protein; the word gives no strength. Where a sequence is shown, tags or fusion partners need not be part of it.

Amino acid sequences for entries named in this document (tags omitted). A change or cut given only in a name is not applied to a line headed by its entry.
UniProt P13647: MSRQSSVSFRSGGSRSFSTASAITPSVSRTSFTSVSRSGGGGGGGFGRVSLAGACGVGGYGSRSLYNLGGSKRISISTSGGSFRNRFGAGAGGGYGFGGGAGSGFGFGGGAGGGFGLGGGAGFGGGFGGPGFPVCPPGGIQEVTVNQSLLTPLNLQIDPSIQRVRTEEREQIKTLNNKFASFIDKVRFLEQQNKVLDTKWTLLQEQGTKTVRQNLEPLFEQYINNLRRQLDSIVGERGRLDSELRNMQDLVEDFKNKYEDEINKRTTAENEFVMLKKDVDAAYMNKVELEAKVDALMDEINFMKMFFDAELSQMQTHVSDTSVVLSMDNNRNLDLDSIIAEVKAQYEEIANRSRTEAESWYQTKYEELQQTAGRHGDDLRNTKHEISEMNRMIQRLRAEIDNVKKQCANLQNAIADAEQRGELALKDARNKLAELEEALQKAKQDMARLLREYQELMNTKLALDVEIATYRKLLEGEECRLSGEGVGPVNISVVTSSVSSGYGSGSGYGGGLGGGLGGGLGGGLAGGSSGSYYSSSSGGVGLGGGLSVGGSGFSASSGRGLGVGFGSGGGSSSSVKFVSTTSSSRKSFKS

These substances were tested against T1, GAL4-DNA-binding domain (BD) fused to the C-terminus of desmoplakin (UniProt P15924) (assay: two-hybrid; yeast three-hybrid: GAL4-BD-DSP C-terminus with co-expressed K5 and K14 constructs; growth on medium without histidine or without adenine).
T1 sequence: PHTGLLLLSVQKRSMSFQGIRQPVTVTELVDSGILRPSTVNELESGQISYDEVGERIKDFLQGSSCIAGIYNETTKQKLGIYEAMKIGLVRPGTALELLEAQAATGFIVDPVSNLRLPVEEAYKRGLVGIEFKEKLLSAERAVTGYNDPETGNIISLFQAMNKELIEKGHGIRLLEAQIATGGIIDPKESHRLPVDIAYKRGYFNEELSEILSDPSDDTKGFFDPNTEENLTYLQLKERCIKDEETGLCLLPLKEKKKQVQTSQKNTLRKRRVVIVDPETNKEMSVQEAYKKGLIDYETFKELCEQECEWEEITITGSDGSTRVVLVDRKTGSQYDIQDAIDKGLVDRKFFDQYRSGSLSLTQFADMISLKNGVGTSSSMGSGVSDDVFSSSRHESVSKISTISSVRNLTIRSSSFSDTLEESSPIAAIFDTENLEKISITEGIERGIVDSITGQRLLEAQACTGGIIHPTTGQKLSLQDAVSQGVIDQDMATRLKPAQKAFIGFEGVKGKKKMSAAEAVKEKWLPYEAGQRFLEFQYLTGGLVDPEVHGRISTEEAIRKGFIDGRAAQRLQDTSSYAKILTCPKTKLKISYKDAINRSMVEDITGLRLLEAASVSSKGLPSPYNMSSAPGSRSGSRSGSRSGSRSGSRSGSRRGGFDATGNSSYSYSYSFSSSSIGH
With “K5 p.(Asn176Ser) with wild-type K14 (Y3H) (from UniProt P13647 1-590; P02533 1-472) (complex)” the binding was “binds”. With “K5 p.(Asn177Ser) with wild-type K14 (Y3H) (from UniProt P13647 1-590; P02533 1-472) (complex)” the binding was “binds”. In the case of “K5 p.(Glu168Asp) with wild-type K14 (Y3H) (from UniProt P13647 1-590; P02533 1-472) (complex)”, the binding is reported as “binds”. For “K5 p.(Glu168Gln) with wild-type K14 (Y3H) (from UniProt P13647 1-590; P02533 1-472) (complex)”, the binding was “binds”. For “K5 p.(Leu311Arg) with wild-type K14 (Y3H) (from UniProt P13647 1-590; P02533 1-472) (complex)”, the binding was “binds”. For “K5/K14 co-expressed in yeast (wild type, Y3H) (from UniProt P13647 1-590; P02533 1-472) (complex)”, the binding was “binds”. With “K14 p.(Arg125His) with wild-type K5 (Y3H) (from UniProt P13647 1-590; P02533 1-472) (complex)” the binding was “binds”. With “K14 p.(Ile176Met) with wild-type K5 (Y3H) (from UniProt P13647 1-590; P02533 1-472) (complex)” the binding was “binds”. For “K14 p.(Leu284Pro) with wild-type K5 (Y3H) (from UniProt P13647 1-590; P02533 1-472) (complex)”, the binding was “binds”. “K14 p.(Val270Met) with wild-type K5 (Y3H) (from UniProt P13647 1-590; P02533 1-472) (complex)” was tested, and the binding was “binds”.
